Counter-ions that a name gives are not always drawn. The list shows a part of the results. Plates or batches differ in their baseline, so values are only roughly comparable.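 A clonal Drosophila S2 line expresses Smoothened bearing circularly permuted GFP in its cytoplasmic tail; Hh-driven phosphorylation opens an inhibitory loop, making it fluoresce. Flow cytometry measured per-cell fluorescence, normalized to Hh-stimulated untreated cells. Hits were inhibitor groups with shared pathway targets that consistently shifted fluorescence, not individual compounds.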
What follows are compounds tested on Drosophila S2 cl14 SmoIP sensor cells (assay: normalized SmoIP GFP fluorescence (untreated unstimulated = 0%, untreated Hh-stimulated = 100%); higher = more Smo activation sensor fluorescence). Conditions: stimulation: Hh conditioned medium (+Hh); compound concentration: 15 uM; 24 h.
For `CCOc1cc([C@@H](CS(C)(=O)=O)N2C(=O)c3cccc(NC(C)=O)c3C2=O)ccc1OC`, the “normalized SmoIP GFP fluorescence” value was 130%.
In the case of `CCC[C@H](NC(=O)[C@@H]1[C@H]2CCC[C@H]2CN1C(=O)[C@@H](NC(=O)[C@@H](NC(=O)c1cnccn1)C1CCCCC1)C(C)(C)C)C(=O)C(=O)NC1CC1` [Telaprevir(VX-950)], the “normalized SmoIP GFP fluorescence” value is reported as 131%.
`CC[C@H](NC(=O)[C@H](C)NC)C(=O)N1C[C@@H](O)C[C@H]1Cc1c(-c2[nH]c3cc(F)ccc3c2C[C@@H]2C[C@H](O)CN2C(=O)[C@H](CC)NC(=O)[C@H](C)NC)[nH]c2cc(F)ccc12` was tested, and the “normalized SmoIP GFP fluorescence” value was 81.3%.
For `C[C@@H]1CCN(C(=O)CC#N)C[C@@H]1N(C)c1ncnc2[nH]ccc12`, the “normalized SmoIP GFP fluorescence” value was 122%.
With `CC(C)C[C@H](NC(=O)[C@@H](NC(=O)c1cccc(-c2ccccc2)n1)[C@@H](C)O)B(O)O` the “normalized SmoIP GFP fluorescence” value was 108%.

Same assay, conditions: stimulation: mock conditioned medium (-Hh); compound concentration: 15 uM; 24 h
In the case of `CN1CCN(CCOc2cc(OC3CCOCC3)c3c(Nc4c(Cl)ccc5c4OCO5)ncnc3c2)CC1`, the “normalized SmoIP GFP fluorescence” value is reported as 69.4%.
In the case of `COC(=O)C1=C(C)NC(C)=C(C(=O)OC2CCCN(Cc3ccccc3)C2)C1c1cccc([N+](=O)[O-])c1` (centres undefined) [benidipine-hydrochloride], the “normalized SmoIP GFP fluorescence” value is reported as 45.7%.
With `Cc1cc(C)c(CNC(=O)c2cc(-c3ccc(CN4CCOCC4)cc3)cc3c2cnn3C2CCCC2)c(=O)[nH]1` the “normalized SmoIP GFP fluorescence” value was 65%.
With `CN(C[C@@H]1COCCO1)S(=O)(=O)Nc1ccc2ccc3ncc(-c4cnn(C)c4)cc3c(=O)c2c1` the “normalized SmoIP GFP fluorescence” value was 20.9%.
For `C[C@@H]1C[C@H]2[C@@H]3CCC4=CC(=O)C=C[C@]4(C)[C@@]3(F)[C@@H](O)C[C@]2(C)[C@@]1(O)C(=O)CO` [Dexamethasone], the “normalized SmoIP GFP fluorescence” value was 2.97%.
In the case of `CC(C)OC(=O)C1=CN(C(=O)c2ccc(F)c(F)c2)CC(C)(C)c2c1[nH]c1ccccc21`, the “normalized SmoIP GFP fluorescence” value is reported as -15.3%.
With `CN1CC2c3ccccc3Oc3ccc(Cl)cc3C2C1` (centres undefined) [Asenapine] the “normalized SmoIP GFP fluorescence” value was 53.9%.
For `Cc1cccc(-c2[nH]c(C(C)(C)C)nc2-c2ccc3nccnc3c2)n1`, the “normalized SmoIP GFP fluorescence” value was 19.8%.
With `COc1ccc(CC(C)NCC(O)c2ccc(O)c(NC=O)c2)cc1` (centres undefined) [formoterol-hemifumarate] the “normalized SmoIP GFP fluorescence” value was -14.1%.
For `Cc1ccc(Nc2nccc(N(C)c3ccc4c(C)n(C)nc4c3)n2)cc1S(N)(=O)=O` [pazopanib], the “normalized SmoIP GFP fluorescence” value was 35.9%.
`Cc1c(Cn2c(C)nc3c(C(=O)O)cc(N4CCOCC4)cc32)cccc1C(F)(F)F` was tested, and the “normalized SmoIP GFP fluorescence” value was 9.08%.
In the case of `COc1cc(Nc2ncc(F)c(Nc3ccc4c(n3)NC(=O)C(C)(C)O4)n2)cc(OC)c1OC`, the “normalized SmoIP GFP fluorescence” value is reported as 1.24%.
With `CCCCCCCCOc1ccccc1C(=O)Nc1ccc(C(=O)OCC[N+](C)(CC)CC)cc1` [otilonium-bromide] the “normalized SmoIP GFP fluorescence” value was 29.2%.
`O=c1ncn2nc(Sc3ccc(F)cc3F)ccc2c1-c1c(Cl)cccc1Cl` was tested, and the “normalized SmoIP GFP fluorescence” value was -1.13%.
For `Cc1ccccc1C(OCCN(C)C)c1ccccc1` (centres undefined) [orphenadrine-citrate-norflex], the “normalized SmoIP GFP fluorescence” value was -6.61%.
For `COc1ccc(CNCc2cccc3ccccc23)cc1`, the “normalized SmoIP GFP fluorescence” value was 9.68%.
For `N[C@@H](CC(=O)N1CCn2c(nnc2C(F)(F)F)C1)Cc1cc(F)c(F)cc1F` [Sitagliptin], the “normalized SmoIP GFP fluorescence” value was 1.21%.
With `CCCC(CCC)C(=O)O` [Sodium-valproate] the “normalized SmoIP GFP fluorescence” value was -7.81%.
For `Cc1ccc([C@@H]2O[C@H](CO)[C@@H](O)[C@H](O)[C@H]2O)cc1Cc1ccc(-c2ccc(F)cc2)s1` [canagliflozin], the “normalized SmoIP GFP fluorescence” value was -14.5%.
In the case of `O=C(c1ccc(Nc2nccc(-c3cc4ccccc4s3)n2)cc1)N1CCC(N2CCCC2)CC1`, the “normalized SmoIP GFP fluorescence” value is reported as 82.1%.
`CC(=O)O[C@]1(C(C)=O)CC[C@H]2[C@@H]3C[C@H](C)C4=CC(=O)CC[C@]4(C)[C@H]3CC[C@@]21C` [Medroxyprogesterone-acetate] was tested, and the “normalized SmoIP GFP fluorescence” value was 9.71%.
`O=C1Nc2ccccc2/C1=C1/Nc2ccccc2C1=O` [Indirubin] was tested, and the “normalized SmoIP GFP fluorescence” value was -13.9%.
For `COc1ccc2c(Oc3ccc(NC(=O)c4c(C)n(CC(C)(C)O)n(-c5ccccc5)c4=O)nc3)ccnc2c1`, the “normalized SmoIP GFP fluorescence” value was 20.3%.
With `O=c1cc(N2CCOCC2)oc2c(-c3ccccc3)cccc12` the “normalized SmoIP GFP fluorescence” value was 1.35%.
`CCCC(=O)Nc1ccc(OCC(O)CNC(C)C)c(C(C)=O)c1` (centres undefined) [acebutolol-hcl] was tested, and the “normalized SmoIP GFP fluorescence” value was -1.23%.
With `O=C1C(=O)N(Cc2ccc(Cl)c(Cl)c2)c2ccccc21` [apoptosis-activator-2] the “normalized SmoIP GFP fluorescence” value was 0.0767%.
In the case of `O=C(O)Cn1nnc(-c2cc(N3CCC(Oc4cc(F)ccc4Br)CC3)no2)n1`, the “normalized SmoIP GFP fluorescence” value is reported as 0.274%.
With `Cc1ccc(Nc2nccc(N(C)c3ccc4c(C)n(C)nc4c3)n2)cc1S(N)(=O)=O` [Pazopanib-Hydrochloride] the “normalized SmoIP GFP fluorescence” value was 76.4%.
With `NCCCCCNCC12CC3CC(CC(C3)C1)C2` [iem-1754-dihydrobromide] the “normalized SmoIP GFP fluorescence” value was -1.34%.
